The data set deals with anti-lysostaphin antibodies. In words: Binding of immunised mouse sera to lysostaphin-coated plates. The following applies: gamma-specific detection; sera of mice immunised s.c. with 10 μg recombinant or natural lysostaphin, no adjuvant. In kind it is in vivo.

The values that follow come from patent US11717561B2, “Multimodal antimicrobial therapy” (Longhorn Vaccines and Diagnostics, LLC, priority 2013, dated 2023).

Consider “Lysostaphin: natural lysostaphin from S. staphylolyticus (Sigma Cat L7386), a 27 kD glycylglycine endopeptidase”, for which the “Binding of anti-lysostaphin antibodies (immunised mouse sera) to the coating lysostaphin” value was “markedly higher binding”. For the substance “Recombinant Lysostaphin: recombinant simulans lysostaphin produced in E. coli (Sigma-Aldrich)”, the “Binding of anti-lysostaphin antibodies (immunised mouse sera) to the coating lysostaphin” value is “stronger”.
